Results as given in PubChem BioAssay AID2685 (National Center for Advancing Translational Sciences (NCATS), 2010).
This is one part of the list. The main result of the screen is listed elsewhere. These columns were measured beside it and carry no call. Compounds called inactive in the main read-out are mostly missing here. Potencies come from curve fits of mixed quality, noted in brackets.

Assay: qHTS Assay for Lipid Storage Modulators in Drosophila S3 Cells;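 as to cell number change: cells counted by Cell Tracker Red CMTPX staining in the red channel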
Details: BODIPY lipid droplet fluorescence, 18-24 h; for cell number change: measured here: cell count max response, cells fed with added oleic acid
Method in brief: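 Drosophila S3 cells got compounds at several concentrations plus oleic acid (400 uM solution). Laser-scanning cytometry with 488 nm excitation read lipid droplets at 500-530 nm and cells at 575-640 nm. Percent activity was relative to 20 uM Triacsin C.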

[1] = measured here: lipid fluorescence (Fed channel) AC50, cells fed with added oleic acid
[2] = measured here: cell number channel AC50, cells fed with added oleic acid

SMILES | cell number change [%] | AC50 [1] | AC50 [2]
Cc1ccc(-c2nnn(CC(=O)N(CC(=O)NC3CCCC3)c3ccccc3F)n2)o1 | 12.5 | 14.6 µM [rising, partial curve, poor fit] | –
Cn1cc(Br)c(C(=O)NNC(=O)Nc2ccccc2C(F)(F)F)n1 | -11.5 | 0.82 µM [falling, partial curve, poor fit] | –
CC(NC(=O)CN1C(=O)NC2(CCc3ccccc32)C1=O)c1ccc2c(c1)OCCO2 (stereo not drawn) | 2.39 | – | –
Nc1nc(CN2CCN(c3ccccc3)CC2)nc(Nc2ccc(Cl)cc2)n1 | -9.07 | – | –
C=CCc1cc(C)ccc1OCC(O)CN1CCN(c2ccccc2)CC1 (stereo not drawn) | -82.5 | – | 16.4 µM [falling, partial curve]
Cc1ccccc1NS(=O)(=O)c1ccc(N2CCCC2=O)cc1 | -7.32 | 0.291 µM [rising, full curve, poor fit] | –
CCOc1ccc(NC(=O)c2ccccc2OCC(=O)c2ccc(C)cc2)cc1 | 4.57 | 6.51 µM [rising, single point] | –
COC(=O)c1[nH]c2ccc(Cl)cc2c1NC(=O)c1ccccc1[N+](=O)[O-] | -26.1 | 18.4 µM [falling, single point] | –
Cc1ccc(-c2c(NC(=O)c3ccco3)oc3ccccc3c2=O)cc1 | -4.48 | 0.13 µM [rising, full curve, poor fit] | –
COc1ccc(OC)c(NC(=O)c2cccc(N3C(=O)C4C5C=CC(C6CC56)C4C3=O)c2)c1 (stereo not drawn) | -45.9 | 18.4 µM [falling, partial curve] | 23.1 µM [falling, partial curve]
O=C(COC(=O)c1cc2c(s1)CCC2)Nc1ccc(F)cc1 | – | 25.9 µM [rising, single point] | –
Cc1ccc(Nc2nc(-c3ccc(O)cc3O)cs2)nc1 | -67.5 | 20.6 µM [falling, single point] | 16.4 µM [falling, single point]
Cc1ccc2nc(SCC(=O)N3CCC(C)CC3)nc(=O)n2c1 | -43.6 | 0.517 µM [falling, partial curve, poor fit] | 0.092 µM [falling, full curve, poor fit]
COc1cc(S(=O)(=O)N2CCCCCC2)ccc1Cl | -8.33 | – | –
COc1cc(OC)cc(-c2c(-c3cccs3)c3cc(-c4ccc5c(c4)OCO5)ccc3n2C)c1 | -5.3 | 0.326 µM [falling, partial curve] | 0.517 µM [falling, partial curve]
Cc1ccc2ncnc(-c3ccccc3)c2c1 | 14.4 | – | –
S=c1[nH]nc(-c2ccc(Cl)cc2Cl)n1-c1ccccc1 | 23.5 | 6.51 µM [rising, single point] | –

Quoted at random: 2 records from the list
SMILES | cell number change [%] | AC50 [1] | AC50 [2]
S=c1[nH]nc(-c2ccc(Cl)cc2Cl)n1-c1ccccc1 | 23.5 | 6.51 µM [rising, single point] | –
Cc1ccc(-c2nnn(CC(=O)N(CC(=O)NC3CCCC3)c3ccccc3F)n2)o1 | 12.5 | 14.6 µM [rising, partial curve, poor fit] | –
